Measured values as given in article PMC3327665.

Assays:
GST-Bmcc1s (mouse) [1] = assay: pull-down; GST-Bmcc1s or GST on glutathione-sepharose beads, adult mouse brain lysate or lysis buffer only; eluates probed by Western blot with polyclonal anti-MAP6 antibody 23N; only the target purified
GST-Bmcc1s (mouse) [2] = assay: condition: 1.5 µg F-STOP with 2 µg GST-Bmcc1s in 300 µl; pull-down; 10 µl glutathione-agarose beads with 2 µg GST-Bmcc1s or 4 µg GST and 1.5 µg of one purified STOP isoform; 2 h at 4°C in PEM buffer plus 50 mM KCl, 0.05% Triton-X100, 1 mM DTT; three washes; SDS-PAGE, Coomassie; both purified
GST-Bmcc1s (mouse) [3] = assay: pull-down; 10 µl glutathione-agarose beads with 2 µg GST-Bmcc1s or 4 µg GST and 1.5 µg of one purified STOP isoform; 2 h at 4°C in PEM buffer plus 50 mM KCl, 0.05% Triton-X100, 1 mM DTT; three washes; SDS-PAGE, Coomassie; both purified

binding (GST-Bmcc1s (mouse) [1]) | binding (GST-Bmcc1s (mouse) [3]) | Binder | other results
no binding |  | MAP6 fibroblast isoform F-STOP (42 kDa), endogenous (protein, UniProt Q7TSJ2-3 1-306) MQLSADARDPEGAGGAGVLAAGKASGVDQRDTRRKAGPAWMVTRNEGHEEKPLPPAQSQTQEGGPAAGKASGADQRDTRRKAGPAWMVTRSEGHEEKPLPPAQSQTQEGGPAAGKASGADQRDTRRKAGPAWMVTRTEGHEETPLPPAQSQTQEGGPAAGKASGADERDTRRKAGPAWMVRRSEGHEQTPAAHAQGTGPEGGKGRAVADALNRQIREEVASTVSSSYRNEFRAWTDIKPVKPIKAKPQYKPPDDKMVHETSYSAQFKGEANKPSAADNKAMDRRRIRSLYSEPFKECPKEPGQTHQ | 
 |  | purified F-STOP (His-tagged MAP6 fibroblast isoform) (protein, UniProt Q7TSJ2-3 1-306) MQLSADARDPEGAGGAGVLAAGKASGVDQRDTRRKAGPAWMVTRNEGHEEKPLPPAQSQTQEGGPAAGKASGADQRDTRRKAGPAWMVTRSEGHEEKPLPPAQSQTQEGGPAAGKASGADQRDTRRKAGPAWMVTRTEGHEETPLPPAQSQTQEGGPAAGKASGADERDTRRKAGPAWMVRRSEGHEQTPAAHAQGTGPEGGKGRAVADALNRQIREEVASTVSSSYRNEFRAWTDIKPVKPIKAKPQYKPPDDKMVHETSYSAQFKGEANKPSAADNKAMDRRRIRSLYSEPFKECPKEPGQTHQ | binding (GST-Bmcc1s (mouse) [2]): no binding
 | binds | purified N-STOP (His-tagged MAP6 neuronal isoform) (protein, UniProt Q63560-1 1-952) MAWPCITRACCIARFWNQLDKADIAVPLVFTKYSEATEHPGAPPQPPAPPQPGLAPPSRAVAIETQPAQGESDAVARATGPAPGPSGDRETAAAPGRSGLGLGAASGSTSGSGPADSVMRQDYRAWKVQRPEPSCRPRSEYQPSDAPFERETQYQKDFRAWPLPRRGDHPWIPKPVQIPATSQPSPPVLGMPKRRPQSQERGPIQLSADARDPEGAGGAGVPAAGKASGADQRDTRRKAGPAWMVTRTEGHEEKPLPPAQSQTQEGGPAAGKASGADQRDTRRKAGPAWMVTRTEGHEEKPLPPAQSQTQEGGPAAGKASGADQRDTRRKAGPAWMVTRTEGHEETPLPPAQSQTQEGGPAAGKASGADQRDTRRKAGPAWMVTRTEGHEETPLPPAQSQTQEGGPAAGKASGADERDTRRKAGPAWMVRRSEGHEQTTAAHAQGTGPEGGKGRAVADALNRQIREEVTSTVSSSYRNEFRAWTDIKPVKPIKAKPQYKPPDDKMVHETSYSAQFKGEASKPTTADNKVVDRRRIRSLYSEPFKESPKVEKPSVQSSKPKKTSTSQKPLRKAKDKQVASGQAAKKKTTESPSATKPDDKEQSKEMNNKLAEAKESRVKPTSDKNQGPVAKEPHKDQGPVAPGLPKGQGPAVQEPLKDQGPMVPGLPKDQAPVVPGSLKGQSPTAPGPPKDQGAVLLGPMKDLGPVAPASVKDQDHMASELLKNKDSVPLAPAKAQSPLLPEPLKNQSPVVPARAKDQSFPAPAPTPLKDPGPVIPEPEKDGAPMVPERRKDQNASIMASLKNEAPVASESVKNQGLGGPEPAKDTGTDLKGHGSVFVAPVKSQGPVVPEPTKGQDPIIPALAKDQGPILPEPPKNQGPPVVLGPIKNQDPVIPVPLKGQDPVVPAPTKDPGPTAPDPLKSQGPRGPQLPTVSPSPPVMIPTVPHAEYIEGSP | 
 | binds | purified E-STOP (His-tagged MAP6 neuronal isoform) (protein, UniProt Q63560-2 1-660) MAWPCITRACCIARFWNQLDKADIAVPLVFTKYSEATEHPGAPPQPPAPPQPGLAPPSRAVAIETQPAQGESDAVARATGPAPGPSGDRETAAAPGRSGLGLGAASGSTSGSGPADSVMRQDYRAWKVQRPEPSCRPRSEYQPSDAPFERETQYQKDFRAWPLPRRGDHPWIPKPVQIPATSQPSPPVLGMPKRRPQSQERGPIQLSADARDPEGAGGAGVPAAGKASGADQRDTRRKAGPAWMVTRTEGHEEKPLPPAQSQTQEGGPAAGKASGADQRDTRRKAGPAWMVTRTEGHEEKPLPPAQSQTQEGGPAAGKASGADQRDTRRKAGPAWMVTRTEGHEEKPLPPAQSQTQEGGPAAGKASGADQRDTRRKAGPAWMVTRTEGHEETPLPPAQSQTQEGGPAAGKASGADQRDTRRKAGPAWMVTRTEGHEETPLPPAQSQTQEGGPAAGKASGADERDTRRKAGPAWMVRRSEGHEQTTAAHAQGTGPEGGKGRAVADALNRQIREEVTSTVSSSYRNEFRAWTDIKPVKPIKAKPQYKPPDDKMVHETSYSAQFKGEASKPTTADNKVVDRRRIRSLYSEPFKESPKVEKPSVQSSKPKKTSTSQKPLRKAKDKQVASGQAAKKKTTESPSATKPDDKEQSKEMNNKLAEAKE | 
binds |  | MAP6 neuronal isoform E-STOP (80 kDa), endogenous (protein, UniProt Q7TSJ2-2 1-568) MAWPCITRACCIARFWNQLDKADIAVPLVFTKYSEATEHPGAPPQPPAPLQPALAPPSRAVAIETQPAQGESDAVARATGPAPGPSVDRETVAAPGRSGLGLGAASASTSGSGPADSVMRQDYRAWKVQRPEPSCRPRSEYQPSDAPFERETQYQKDFRAWPLPRRGDHPWIPKPVQIPATSQPSQPVLGVPKRRPQSQERGPMQLSADARDPEGAGGAGVLAAGKASGVDQRDTRRKAGPAWMVTRNEGHEEKPLPPAQSQTQEGGPAAGKASGADQRDTRRKAGPAWMVTRSEGHEEKPLPPAQSQTQEGGPAAGKASGADQRDTRRKAGPAWMVTRTEGHEETPLPPAQSQTQEGGPAAGKASGADERDTRRKAGPAWMVRRSEGHEQTPAAHAQGTGPEGGKGRAVADALNRQIREEVASTVSSSYRNEFRAWTDIKPVKPIKAKPQYKPPDDKMVHETSYSAQFKGEANKPSAADNKAMDRRRIRSLYSEPFKECPKVEKPSVQSSKPKKTSTSHKPPRKAKDKQVVSGQAAKKKTTEGPSATKPDDKEQSKEMNNKLAEAKE | 

No constants are given. Whether binding was seen depends on the method and setting. For some assays here: A result given as binding can be weak or reduced; the word gives no strength. For some assays here: Where a sequence is shown, tags or fusion partners need not be part of it. For some assays here: In cells and extracts the contact can be indirect.
